Some of these results come from one statement about several compounds together.
Tested on: MiaPaCa cells
Test: MTT cell survival assay on MiaPaCa cells
Type: cell-based
Conditions: 100 μM, FIG. 1
Experimental: Pancreactic cancer cell lines, MiaPaCa cells were cultured in DMEM medium (Gibco) supplemented with 10% fetal bovine serum (FBS). Cells were seeded at a densitiy of 15,000 cells per well in 96 well View Plate™ (Packard) in 250 μl of medium containing the same components as described above.
Cells were allowed to adhere and proliferate for 24 hr. At that time, culture medium was removed and serial dilutions from 10 nM to 200 μM of the test compounds were added in culture medium. Gemcitabine and no treatment were included as positive and negative controls. Plates were further incubated at 37° C. and 5% CO2 for 48 hours. The number of viable cells remaining after the appropriate treatment was determined by Colorimetric Assay (3-(4,5-dimethylthiazol-2-yl)-2,5-diphenyl tetrazolium bromide, MTT).
Inhibition of MiaPaCa and Capan-2 cells were tested at different doses of compounds of the invention: 50 μM, 100 μM and 200 μM.
Cells were seeded on 96-well plates in 250 μL media and 24 hours later, compound to be tested was added in 250 μL of media to the desired final concentration (from 10 nM to 200 μM). After 48 hours, the number of viable cells remaining after the appropriate treatment was determined by MTT. Minimum Efficient Dose (MED) and IC50 values was evaluated from the dose-dependency study. […]

COC(=O)c1nc(C#Cc2ccc(C(F)(F)F)cc2)n([C@@H]2O[C@H](COC(C)=O)[C@@H](OC(C)=O)[C@H]2OC(C)=O)n1 [Compound 1, Methyl 5-(4-trifluoromethylphenylethynyl)-1-(2,3,5-tri-O-acetyl-β-D-ribofuranosyl)-1H-[1,2,4]triazole-3-carboxylate]
cells die: more than 80%
